Data taken from paper PMC3365040.
No constants are given. Whether binding was seen depends on the method and setting. In cells and extracts the contact can be indirect. These calls come from enrichment with a bait or labelling near it, and not all partners need be listed. Sequences can lack the tags named with a protein.

By UniProt entry, the sequences of proteins in these tests, tags left out. Residues count along the entry.
UniProt P46013: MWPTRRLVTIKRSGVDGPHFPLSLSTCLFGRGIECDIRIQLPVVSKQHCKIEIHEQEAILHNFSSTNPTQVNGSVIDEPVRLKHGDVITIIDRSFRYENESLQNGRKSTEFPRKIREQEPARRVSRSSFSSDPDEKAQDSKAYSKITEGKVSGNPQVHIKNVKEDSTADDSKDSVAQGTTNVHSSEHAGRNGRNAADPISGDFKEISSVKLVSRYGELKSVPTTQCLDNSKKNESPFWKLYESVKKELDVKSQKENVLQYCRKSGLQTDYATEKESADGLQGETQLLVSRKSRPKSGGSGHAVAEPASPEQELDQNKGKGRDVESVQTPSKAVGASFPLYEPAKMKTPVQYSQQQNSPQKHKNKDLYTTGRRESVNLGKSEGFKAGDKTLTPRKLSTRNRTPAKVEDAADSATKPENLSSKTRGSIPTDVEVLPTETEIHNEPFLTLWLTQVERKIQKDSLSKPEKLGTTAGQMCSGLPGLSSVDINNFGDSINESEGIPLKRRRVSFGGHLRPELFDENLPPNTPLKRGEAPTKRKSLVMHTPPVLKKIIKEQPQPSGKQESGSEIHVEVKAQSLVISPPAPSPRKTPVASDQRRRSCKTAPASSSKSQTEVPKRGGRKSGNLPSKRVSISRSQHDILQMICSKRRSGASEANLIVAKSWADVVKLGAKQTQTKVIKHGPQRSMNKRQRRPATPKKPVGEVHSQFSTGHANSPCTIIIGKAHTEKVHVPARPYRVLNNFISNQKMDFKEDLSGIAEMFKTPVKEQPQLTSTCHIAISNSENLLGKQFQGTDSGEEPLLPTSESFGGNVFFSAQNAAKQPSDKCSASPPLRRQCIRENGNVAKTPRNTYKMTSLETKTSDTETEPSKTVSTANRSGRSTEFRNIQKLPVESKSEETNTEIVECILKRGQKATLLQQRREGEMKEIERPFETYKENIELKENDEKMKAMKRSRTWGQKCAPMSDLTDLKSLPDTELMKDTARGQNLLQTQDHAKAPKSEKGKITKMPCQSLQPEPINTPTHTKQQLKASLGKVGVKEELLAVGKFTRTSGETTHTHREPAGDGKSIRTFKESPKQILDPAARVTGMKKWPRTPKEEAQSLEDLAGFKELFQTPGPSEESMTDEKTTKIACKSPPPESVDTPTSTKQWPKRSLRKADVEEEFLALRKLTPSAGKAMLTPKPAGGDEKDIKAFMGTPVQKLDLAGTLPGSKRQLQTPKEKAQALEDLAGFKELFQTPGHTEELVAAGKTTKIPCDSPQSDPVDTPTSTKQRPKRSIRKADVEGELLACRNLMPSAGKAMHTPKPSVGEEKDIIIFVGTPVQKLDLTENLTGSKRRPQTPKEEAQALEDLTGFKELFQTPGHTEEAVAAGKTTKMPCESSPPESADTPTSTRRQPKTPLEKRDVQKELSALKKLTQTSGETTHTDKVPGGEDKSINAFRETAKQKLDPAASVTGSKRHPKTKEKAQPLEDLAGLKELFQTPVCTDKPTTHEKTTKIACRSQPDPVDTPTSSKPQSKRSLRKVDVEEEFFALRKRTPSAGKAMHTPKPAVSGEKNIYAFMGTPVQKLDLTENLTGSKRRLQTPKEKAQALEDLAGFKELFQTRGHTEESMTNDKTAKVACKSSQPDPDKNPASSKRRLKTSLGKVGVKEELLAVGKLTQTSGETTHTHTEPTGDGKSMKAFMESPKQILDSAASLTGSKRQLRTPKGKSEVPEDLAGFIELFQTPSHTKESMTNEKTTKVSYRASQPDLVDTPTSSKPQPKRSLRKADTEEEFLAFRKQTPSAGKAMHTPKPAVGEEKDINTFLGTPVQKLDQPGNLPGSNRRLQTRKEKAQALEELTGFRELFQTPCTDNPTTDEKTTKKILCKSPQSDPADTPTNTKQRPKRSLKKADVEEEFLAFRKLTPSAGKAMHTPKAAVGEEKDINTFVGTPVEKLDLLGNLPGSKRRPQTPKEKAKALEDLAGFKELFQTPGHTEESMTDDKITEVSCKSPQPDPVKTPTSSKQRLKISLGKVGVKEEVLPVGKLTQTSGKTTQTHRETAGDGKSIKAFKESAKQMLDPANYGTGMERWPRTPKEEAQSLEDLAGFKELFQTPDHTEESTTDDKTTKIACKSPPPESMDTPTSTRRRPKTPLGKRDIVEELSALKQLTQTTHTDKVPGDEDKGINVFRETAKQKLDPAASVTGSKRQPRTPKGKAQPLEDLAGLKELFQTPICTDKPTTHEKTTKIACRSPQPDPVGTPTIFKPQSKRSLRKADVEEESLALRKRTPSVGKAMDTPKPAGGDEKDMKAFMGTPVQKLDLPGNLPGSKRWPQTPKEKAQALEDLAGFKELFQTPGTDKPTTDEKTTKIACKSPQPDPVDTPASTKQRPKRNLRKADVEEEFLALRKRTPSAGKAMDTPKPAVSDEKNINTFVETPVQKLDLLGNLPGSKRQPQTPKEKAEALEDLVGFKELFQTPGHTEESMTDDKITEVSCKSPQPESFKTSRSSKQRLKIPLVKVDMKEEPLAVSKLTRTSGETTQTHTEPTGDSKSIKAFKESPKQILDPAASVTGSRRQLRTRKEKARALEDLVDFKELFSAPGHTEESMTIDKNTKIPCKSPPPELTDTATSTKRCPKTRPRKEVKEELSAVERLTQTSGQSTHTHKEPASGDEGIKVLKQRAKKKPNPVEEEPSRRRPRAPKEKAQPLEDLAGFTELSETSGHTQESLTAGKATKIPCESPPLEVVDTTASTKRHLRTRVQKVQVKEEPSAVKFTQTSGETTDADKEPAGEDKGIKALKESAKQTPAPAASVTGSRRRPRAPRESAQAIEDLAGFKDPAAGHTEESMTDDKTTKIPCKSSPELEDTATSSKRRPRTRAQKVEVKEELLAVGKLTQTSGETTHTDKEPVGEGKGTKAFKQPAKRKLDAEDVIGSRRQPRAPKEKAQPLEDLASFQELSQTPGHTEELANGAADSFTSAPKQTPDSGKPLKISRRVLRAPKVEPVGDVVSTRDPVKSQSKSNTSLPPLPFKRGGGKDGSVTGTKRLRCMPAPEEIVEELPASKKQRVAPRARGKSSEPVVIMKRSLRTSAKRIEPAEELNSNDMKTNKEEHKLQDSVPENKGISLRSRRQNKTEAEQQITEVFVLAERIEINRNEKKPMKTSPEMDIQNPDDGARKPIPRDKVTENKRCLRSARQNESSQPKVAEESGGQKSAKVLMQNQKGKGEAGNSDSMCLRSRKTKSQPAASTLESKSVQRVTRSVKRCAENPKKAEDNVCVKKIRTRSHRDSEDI
UniProt P11387: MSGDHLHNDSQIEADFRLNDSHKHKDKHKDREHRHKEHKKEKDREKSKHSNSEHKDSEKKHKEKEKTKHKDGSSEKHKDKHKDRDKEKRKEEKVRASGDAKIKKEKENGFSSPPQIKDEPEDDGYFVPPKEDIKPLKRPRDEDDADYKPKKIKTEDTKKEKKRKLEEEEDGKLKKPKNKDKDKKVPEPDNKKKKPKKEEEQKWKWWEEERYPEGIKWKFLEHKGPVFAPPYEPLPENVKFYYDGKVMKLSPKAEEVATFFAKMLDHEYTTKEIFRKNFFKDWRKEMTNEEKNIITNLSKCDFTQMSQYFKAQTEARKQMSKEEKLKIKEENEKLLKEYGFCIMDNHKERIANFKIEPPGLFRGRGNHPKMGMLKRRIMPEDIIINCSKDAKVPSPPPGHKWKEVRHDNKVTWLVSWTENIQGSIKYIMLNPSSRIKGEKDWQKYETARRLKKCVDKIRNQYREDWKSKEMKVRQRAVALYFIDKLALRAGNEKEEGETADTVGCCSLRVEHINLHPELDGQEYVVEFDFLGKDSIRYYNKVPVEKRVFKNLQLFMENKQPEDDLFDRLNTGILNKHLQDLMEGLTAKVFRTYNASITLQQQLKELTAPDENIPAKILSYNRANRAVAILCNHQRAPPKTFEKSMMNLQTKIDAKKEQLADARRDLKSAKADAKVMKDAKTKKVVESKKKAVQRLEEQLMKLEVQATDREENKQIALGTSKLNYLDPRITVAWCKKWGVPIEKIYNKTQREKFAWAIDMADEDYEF
UniProt Q02880: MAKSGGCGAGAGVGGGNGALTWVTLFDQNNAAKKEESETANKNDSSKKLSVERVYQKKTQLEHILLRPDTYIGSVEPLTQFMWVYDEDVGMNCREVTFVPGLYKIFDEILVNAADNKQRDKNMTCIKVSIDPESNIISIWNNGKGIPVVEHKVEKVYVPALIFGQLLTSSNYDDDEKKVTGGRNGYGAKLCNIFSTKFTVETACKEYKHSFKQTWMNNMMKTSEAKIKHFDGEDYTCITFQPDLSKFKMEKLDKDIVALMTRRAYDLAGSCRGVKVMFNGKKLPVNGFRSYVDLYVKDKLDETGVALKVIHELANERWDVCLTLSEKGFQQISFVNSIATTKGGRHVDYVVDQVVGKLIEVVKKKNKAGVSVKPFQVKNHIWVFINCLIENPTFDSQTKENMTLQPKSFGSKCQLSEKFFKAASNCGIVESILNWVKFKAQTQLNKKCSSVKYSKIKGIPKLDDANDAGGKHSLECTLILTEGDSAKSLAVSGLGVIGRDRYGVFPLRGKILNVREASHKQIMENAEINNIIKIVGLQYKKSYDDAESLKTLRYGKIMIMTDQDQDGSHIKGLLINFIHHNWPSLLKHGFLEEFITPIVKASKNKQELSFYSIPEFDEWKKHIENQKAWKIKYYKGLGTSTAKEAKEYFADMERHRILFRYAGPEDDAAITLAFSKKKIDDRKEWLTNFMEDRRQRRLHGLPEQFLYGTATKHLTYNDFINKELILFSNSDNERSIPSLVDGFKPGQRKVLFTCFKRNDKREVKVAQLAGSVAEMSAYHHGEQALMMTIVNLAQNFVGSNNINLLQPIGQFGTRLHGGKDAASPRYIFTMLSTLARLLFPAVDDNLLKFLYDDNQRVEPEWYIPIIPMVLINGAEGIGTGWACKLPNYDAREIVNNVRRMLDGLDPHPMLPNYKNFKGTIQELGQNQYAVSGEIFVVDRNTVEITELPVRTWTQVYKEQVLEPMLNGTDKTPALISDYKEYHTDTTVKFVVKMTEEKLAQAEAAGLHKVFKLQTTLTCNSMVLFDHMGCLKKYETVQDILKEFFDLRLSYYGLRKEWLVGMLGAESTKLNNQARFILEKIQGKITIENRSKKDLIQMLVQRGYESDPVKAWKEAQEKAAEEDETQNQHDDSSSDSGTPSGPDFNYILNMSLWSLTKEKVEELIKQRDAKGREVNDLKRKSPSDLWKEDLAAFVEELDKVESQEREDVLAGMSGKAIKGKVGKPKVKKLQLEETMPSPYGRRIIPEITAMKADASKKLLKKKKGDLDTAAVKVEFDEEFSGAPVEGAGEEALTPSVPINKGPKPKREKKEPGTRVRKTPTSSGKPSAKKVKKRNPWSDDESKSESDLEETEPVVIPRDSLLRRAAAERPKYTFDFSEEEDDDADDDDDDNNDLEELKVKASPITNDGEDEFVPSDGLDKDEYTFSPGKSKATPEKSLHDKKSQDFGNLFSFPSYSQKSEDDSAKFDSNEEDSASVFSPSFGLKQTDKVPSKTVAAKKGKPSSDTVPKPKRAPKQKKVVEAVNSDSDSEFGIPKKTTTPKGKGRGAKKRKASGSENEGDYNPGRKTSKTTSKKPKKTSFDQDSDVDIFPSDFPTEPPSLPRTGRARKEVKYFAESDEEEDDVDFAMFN
UniProt P07305: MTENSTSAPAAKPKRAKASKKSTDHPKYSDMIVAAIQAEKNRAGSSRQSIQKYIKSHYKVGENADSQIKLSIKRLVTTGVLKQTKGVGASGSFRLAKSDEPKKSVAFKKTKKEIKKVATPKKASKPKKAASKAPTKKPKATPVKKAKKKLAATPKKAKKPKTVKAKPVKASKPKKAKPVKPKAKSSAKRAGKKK
UniProt P23284, residues 34-216: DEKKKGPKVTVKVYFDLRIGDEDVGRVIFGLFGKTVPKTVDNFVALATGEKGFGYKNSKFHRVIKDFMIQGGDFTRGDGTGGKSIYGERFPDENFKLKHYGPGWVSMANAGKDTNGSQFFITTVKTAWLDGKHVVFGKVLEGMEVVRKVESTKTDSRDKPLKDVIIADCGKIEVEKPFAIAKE
UniProt Q07955: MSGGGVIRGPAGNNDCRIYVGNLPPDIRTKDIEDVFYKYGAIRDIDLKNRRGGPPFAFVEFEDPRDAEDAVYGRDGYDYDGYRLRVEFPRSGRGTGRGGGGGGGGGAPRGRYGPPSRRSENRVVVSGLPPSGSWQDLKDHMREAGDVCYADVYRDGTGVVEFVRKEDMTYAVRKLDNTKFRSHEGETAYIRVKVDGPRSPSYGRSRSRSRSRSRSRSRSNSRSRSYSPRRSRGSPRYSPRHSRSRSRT
UniProt Q13242: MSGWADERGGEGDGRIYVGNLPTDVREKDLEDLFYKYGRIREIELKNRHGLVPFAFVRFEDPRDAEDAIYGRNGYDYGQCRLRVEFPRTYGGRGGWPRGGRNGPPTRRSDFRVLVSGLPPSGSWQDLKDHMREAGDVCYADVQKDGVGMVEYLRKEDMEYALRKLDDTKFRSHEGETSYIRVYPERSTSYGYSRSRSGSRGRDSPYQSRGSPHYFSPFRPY

T1: C-terminal FLAG-tagged COUP-TFII (pIRES-COUP-TFII-FLAG), expressed in MCF-7 cells (human) (UniProt P24468)
T1 sequence: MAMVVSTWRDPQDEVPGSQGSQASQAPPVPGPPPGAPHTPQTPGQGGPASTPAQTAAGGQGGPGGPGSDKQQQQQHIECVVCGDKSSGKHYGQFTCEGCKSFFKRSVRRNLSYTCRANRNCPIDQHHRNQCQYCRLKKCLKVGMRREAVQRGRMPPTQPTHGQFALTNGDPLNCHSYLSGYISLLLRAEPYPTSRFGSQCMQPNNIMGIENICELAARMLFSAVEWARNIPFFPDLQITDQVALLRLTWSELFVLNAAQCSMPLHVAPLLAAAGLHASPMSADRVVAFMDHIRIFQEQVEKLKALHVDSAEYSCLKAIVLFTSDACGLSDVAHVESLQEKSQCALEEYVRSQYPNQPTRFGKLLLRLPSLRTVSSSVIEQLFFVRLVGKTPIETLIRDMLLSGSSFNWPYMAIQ

B1: Splicing factor, arginine/serine-rich 7 (protein, UniProt Q16629 1-238)
chain: MSRYGRYGGETKVYVGNLGTGAGKGELERAFSYYGPLRTVWIARNPPGFAFVEFEDPRDAEDAVRGLDGKVICGSRVRVELSTGMPRRSRFDRPPARRPFDPNDRCYECGEKGHYAYDCHRYSRRRRSRSRSRSHSRSRGRRYSRSRSRSRGRRSRSASPRRSRSISLRRSRSASLRRSRSGSIKGSRYFQSPSRSRSRSRSISRPRSSRSKSRSPSPKRSRSPSGSPRRSASPERMD
B2: Nonhistone chromosomal protein HMG 14 (protein, UniProt P05114 1-100)
chain: MPKRKVSSAEGAAKEEPKRRSARLSAKPPAKVEAKPKKAAAKDKSSDKKVQTKGKRGAKGKQAEVANQETKEDLPAENGETKTEESPASDEAGEKEAKSD

What follows are molecules tested against T1, C-terminal FLAG-tagged COUP-TFII (pIRES-COUP-TFII-FLAG), expressed in MCF-7 cells (human) (assay: affinity purification with mass spectrometry; 1 mg whole cell extract of MCF-7 cells transfected 24 h with pIRES-COUP-TFII-FLAG on anti-FLAG M2 agarose, overnight (~16 h) at 4°C; serial elution with 0.1 M glycine pH 3.5 (15 min at room temperature, then 5 min at 95°C); MudPIT; proteins of the empty-vector control subtracted).

**Q.** How did the binding turn out when “ATP-dependent DNA helicase 2 subunit 1 (from UniProt P12956 1-609)” was run?
**A.** Its binding is “binds”.

**Q.** “ATP-dependent DNA helicase 2 subunit 2 (from UniProt P13010 1-732)” was tested. Which binding did it give?
**A.** The binding was “binds”.

**Q.** How did the binding turn out when “Antigen KI-67 (from UniProt P46013 1-3256)” was run?
**A.** The binding was “binds”.

**Q.** “DNA topoisomerase 1 (from UniProt P11387 1-765)” was tested. Which binding did it give?
**A.** Its binding is “binds”.

**Q.** How did the binding turn out when “DNA topoisomerase 2-beta (TopoIIβ) (from UniProt Q02880 1-1626)” was run?
**A.** The binding was “binds”.

**Q.** Which binding does the source give for “Heat shock cognate 71 kDa protein (from UniProt P11142 1-646)” here?
**A.** The binding was “binds”.

**Q.** For “Histone H1.0 (from UniProt P07305 1-194)”, which binding is on record?
**A.** The binding was “binds”.

**Q.** Which binding does the source give for “Peptidyl-prolyl cis-trans isomerase B (from UniProt P23284 34-216)” here?
**A.** Its binding is “binds”.

**Q.** “Poly [ADP-ribose] polymerase 1 (PARP-1) (from UniProt P09874 1-1014)” was tested. Which binding did it give?
**A.** Its binding is “binds”.

**Q.** Which binding does the source give for “RNA-binding protein FUS (from UniProt P35637 1-526)” here?
**A.** The binding was “binds”.

**Q.** “Regulator of chromosome condensation (from UniProt P18754 1-421)” was tested. Which binding did it give?
**A.** Its binding is “binds”.

**Q.** With “Splicing factor, arginine/serine-rich 1 (from UniProt Q07955 1-248)” as the molecule, how does the binding read?
**A.** Its binding is “binds”.

**Q.** How did the binding turn out when “Splicing factor, arginine/serine-rich 9 (from UniProt Q13242 1-221)” was run?
**A.** The binding was “binds”.

**Q.** Which binding does the source give for B1 here?
**A.** Its binding is “binds”.

**Q.** B2 was tested. Which binding did it give?
**A.** Its binding is “binds”.
